# From PMC8312610, “F4, a collagen XIX-derived peptide, inhibits tumor angiogenesis through αvβ3 and α5β1 integrin interaction” (Cell Adhesion & Migration, 2021)
# Results are given in words; binding and its absence hold for the method and conditions named. In cells and extracts the contact can be indirect. A result given as binding can be weak or reduced; the word gives no strength.
# Target: T1, F4 peptide (…) from collagen XIX
# T1 sequence (peptide): CNPEDCLYPVSHAHQR
# Experiment: pull-down; affinity chromatography: F4 peptide (reduced with 50 mM DTT) coupled to HiTrap NHS-activated Sepharose; HUVEC protein extracts loaded at +4°C; wash 10 mM Tris, 1 mM CaCl2, 1 mM MgCl2, pH 7.6, 0.1% octylglucoside; elution with 0.15, 0.6 and 1 M NaCl; western blot with anti-integrin subunit antibodies; only the target purified
row,binding,Substance
1,binds,αvβ3 integrin of HUVEC (human (endogenous in HUVEC)) (receptor)
2,binds,α5β1 integrin of HUVEC (human (endogenous in HUVEC)) (receptor)
